Values of other authors in US20230218693A1, “HEMP SPROUT PRODUCTS AND METHODS FOR PRODUCING SAME” (priority 2020, published 2023).
At least one structure is not confirmed: it was looked up by name or label, or the drawing left a doubt.

Conditions: DPPH assay; 50 μM

## O=C1O[C@H]([C@@H](O)CO)C(O)=C1O [Ascorbate, reference compound]
  Reference control, % inhibition at indic. conc.: Ascorbate (50 μM), 80 ± 6%
